In the supplement of paper PMC10727501:
The other results are listed elsewhere or left out. This data set is noisy: repeats of one test often differ as much as different tests do.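 Free-swimming zebrafish larvae were assessed for O-bend response probability to dark flashes (naive: first five; training: remaining flashes across four 60-flash blocks; test: later 60-flash block) and for OMR turning toward alternating leftward/rightward LED motion. Six treated larvae were compared against sixty 0.1% DMSO controls; hits required |SSMD|≥2.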

Columns and labels:
Conditions in all cases: 10 µM; pre-incubation: 30-90 min
[1] = test system: Danio rerio larvae (5 dpf, TLF); experiment: OMR-Perf (SSMD vs DMSO vehicle); higher = higher than vehicle (e.g. higher dark-flash O-bend response probability, or better optomotor performance)
[2] = test system: Danio rerio larvae (5 dpf, TLF); experiment: Prob-Test (SSMD vs DMSO vehicle); higher = higher than vehicle (e.g. higher dark-flash O-bend response probability, or better optomotor performance)
[3] = test system: Danio rerio larvae (5 dpf, TLF); experiment: Prob-Naive (SSMD vs DMSO vehicle); higher = higher than vehicle (e.g. higher dark-flash O-bend response probability, or better optomotor performance)
[4] = test system: Danio rerio larvae (5 dpf, TLF); experiment: Prob-Train (SSMD vs DMSO vehicle); higher = higher than vehicle (e.g. higher dark-flash O-bend response probability, or better optomotor performance)

Cc1cc(Cn2cnc3c2C[C@@H](C(=O)O)N(C(=O)C(c2ccccc2)c2ccccc2)C3)ccc1N(C)C
OMR-Perf [1]: 0.323 | Prob-Test [2]: 0.316 | Prob-Naive [3]: 0.147 | Prob-Train [4]: 0.459

O=C(O)c1ccc(O)c2ncccc12
OMR-Perf [1]: 0.72 | Prob-Test [2]: -0.0416 | Prob-Naive [3]: 0.587 | Prob-Train [4]: -0.225

NC(=O)c1ccc(I)c([N+](=O)[O-])c1 [Iniparib (BSI-201)]
OMR-Perf [1]: -0.538 | Prob-Test [2]: -0.576 | Prob-Naive [3]: -0.133 | Prob-Train [4]: -0.372

COc1ccc(CN(CCN(C)C)c2ccccn2)cc1.O=C(O)C=CC(=O)O [Pyrilamine Maleate]
OMR-Perf [1]: 0.207 | Prob-Test [2]: 0.247 | Prob-Naive [3]: 0.444 | Prob-Train [4]: 0.0767

CCCCCCCCCCCCCCCCCCCCCCO [Docosanol (Abreva)]
OMR-Perf [1]: 0.0863 | Prob-Test [2]: -0.254 | Prob-Naive [3]: 0.448 | Prob-Train [4]: 0.0335

O=C(O)/C=C/c1ccc(O)c(O)c1 [Caffeic Acid]
OMR-Perf [1]: -0.491 | Prob-Test [2]: 0.00575 | Prob-Naive [3]: 0.375 | Prob-Train [4]: -0.0802

CN1CC[C@H](c2c(O)cc(O)c3c(=O)cc(-c4ccccc4Cl)oc23)[C@H](O)C1.Cl [Flavopiridol HCl]
OMR-Perf [1]: -0.512 | Prob-Test [2]: -1.05 | Prob-Naive [3]: 0.148 | Prob-Train [4]: 0.389

CCc1cc2c(cc1CC)CC(NC[C@H](O)c1ccc(O)c3[nH]c(=O)ccc13)C2.O=C(O)/C=C/C(=O)O [Indacaterol Maleate]
OMR-Perf [1]: -0.073 | Prob-Test [2]: 0.79 | Prob-Naive [3]: 0.391 | Prob-Train [4]: 0.556

C[C@@H](N)[C@H]1CC[C@H](C(=O)Nc2ccncc2)CC1.Cl.Cl
OMR-Perf [1]: 0.0236 | Prob-Test [2]: 0.0203 | Prob-Naive [3]: -0.141 | Prob-Train [4]: -0.394

C[C@@H]1CN(CC(=O)Nc2ccc3c(c2)Cc2cccc(-c4cc(=O)cc(N5CCOCC5)o4)c2S3)C[C@H](C)O1
OMR-Perf [1]: -0.346 | Prob-Test [2]: -0.411 | Prob-Naive [3]: 0.173 | Prob-Train [4]: -0.00194

CN(C[C@@H]1COCCO1)S(=O)(=O)Nc1ccc2ccc3ncc(-c4cnn(C)c4)cc3c(=O)c2c1
OMR-Perf [1]: 0.256 | Prob-Test [2]: -0.273 | Prob-Naive [3]: 0.319 | Prob-Train [4]: 0.124

CCCCCCCCCCCCCCCCO [1-Hexadecanol]
OMR-Perf [1]: -0.401 | Prob-Test [2]: 0.143 | Prob-Naive [3]: 0.585 | Prob-Train [4]: 1.2

Cc1nccn1CC1CCc2c(c3ccccc3n2C)C1=O (configuration not stated) [Ondansetron (Zofran)]
OMR-Perf [1]: -0.224 | Prob-Test [2]: 0.694 | Prob-Naive [3]: 0.42 | Prob-Train [4]: 0.241

O=c1cc(O)c(Cl)c[nH]1 [Gimeracil]
OMR-Perf [1]: -0.885 | Prob-Test [2]: 0.324 | Prob-Naive [3]: -0.0729 | Prob-Train [4]: 0.459

Cc1coc2c1C(=O)C(=O)c1c-2ccc2c1CCCC2(C)C [Tanshinone IIA]
OMR-Perf [1]: -1.01 | Prob-Test [2]: -0.276 | Prob-Naive [3]: 0.208 | Prob-Train [4]: -0.503

CNCCCC12CCC(c3ccccc31)c1ccccc12.Cl [Maprotiline HCl]
OMR-Perf [1]: -0.525 | Prob-Test [2]: -0.421 | Prob-Naive [3]: 0.644 | Prob-Train [4]: -0.103

O=c1c2ccccc2nc2n1CCc1c-2[nH]c2ccccc12 [Rutaecarpine]
OMR-Perf [1]: -0.599 | Prob-Test [2]: -0.311 | Prob-Naive [3]: 0.146 | Prob-Train [4]: -0.342

NS(=O)(=O)c1cc(Cl)c(Cl)c(S(N)(=O)=O)c1 [Dichlorphenamide]
OMR-Perf [1]: -0.674 | Prob-Test [2]: -0.0652 | Prob-Naive [3]: -0.0225 | Prob-Train [4]: 0.309

CS(=O)(=O)N1CCc2c(-c3cnc(N)nc3)nc(N3CCOCC3)nc21
OMR-Perf [1]: -0.478 | Prob-Test [2]: -0.0136 | Prob-Naive [3]: 0.285 | Prob-Train [4]: 0.227

CC(C)[C@H]1CC[C@H](C(=O)N[C@H](Cc2ccccc2)C(=O)O)CC1 [Nateglinide]
OMR-Perf [1]: 0.0403 | Prob-Test [2]: -0.194 | Prob-Naive [3]: -0.199 | Prob-Train [4]: -0.191

O=C(Nc1c[nH]nc1-c1nc2cc(CN3CCOCC3)ccc2[nH]1)NC1CC1
OMR-Perf [1]: -0.348 | Prob-Test [2]: -0.0962 | Prob-Naive [3]: -0.766 | Prob-Train [4]: -0.169

CC(C)CCNC(=O)C(CC(C)C)NC(=O)C1OC1C(=O)O (configuration not stated) [Loxistatin Acid (E-64C)]
OMR-Perf [1]: -0.406 | Prob-Test [2]: 0.174 | Prob-Naive [3]: -0.484 | Prob-Train [4]: -0.0694

CC(Oc1c(Cl)cccc1Cl)C1=NCCN1.Cl (configuration not stated) [Lofexidine HCl]
OMR-Perf [1]: 0.269 | Prob-Test [2]: -0.419 | Prob-Naive [3]: 0.298 | Prob-Train [4]: 0.229

C[N+]1(C)[C@@H]2C[C@@H](OC(=O)C(O)(c3cccs3)c3cccs3)C[C@H]1[C@@H]1O[C@@H]12.O.[Br-] [Tiotropium Bromide hydrate]
OMR-Perf [1]: -0.68 | Prob-Test [2]: -0.83 | Prob-Naive [3]: -0.0607 | Prob-Train [4]: -0.776

C=CC(=O)Nc1ccc2ncnc(Nc3ccc(OCc4cccc(F)c4)c(Cl)c3)c2c1.Cc1ccc(S(=O)(=O)O)cc1
OMR-Perf [1]: 0.192 | Prob-Test [2]: -0.164 | Prob-Naive [3]: -0.13 | Prob-Train [4]: -0.252

COC(=O)CCc1ccc(OCC(O)CNC(C)C)cc1.Cl (configuration not stated) [Esmolol HCl]
OMR-Perf [1]: 0.647 | Prob-Test [2]: 0.231 | Prob-Naive [3]: 0.263 | Prob-Train [4]: 0.655

CC1(C)CNc2cc(NC(=O)c3cccnc3NCc3ccncc3)ccc21.O=P(O)(O)O.O=P(O)(O)O [Motesanib Diphosphate (AMG-706)]
OMR-Perf [1]: -0.26 | Prob-Test [2]: -0.293 | Prob-Naive [3]: 0.568 | Prob-Train [4]: -0.808

CC[C@H](c1ccc(O)cc1)[C@@H](CC)c1ccc(O)cc1 [Hexestrol]
OMR-Perf [1]: 0.879 | Prob-Test [2]: -0.814 | Prob-Naive [3]: -0.813 | Prob-Train [4]: -2.17
